Some of the results follow.
Assays:
Assay in all cases: log2 fold change, soluble protein after heating vs DMSO (PISA); higher = thermal stabilisation; K562 lysate, 10 uM; active = over 0.2 and 3.5 SD of the protein, either way, in both replicates (recomputed)
erlotinib = compound: C#Cc1cccc(Nc2ncnc3cc(OCCOC)c(OCCOC)cc23)c1 [erlotinib]
In short: (§1)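 Values give the log-two fold change in thermal stability against solvent controls, from duplicates. Crude K562 extract at 1 mg/mL protein, made by dounce homogenisation in PBS pH 7.4 with 1 mM MgCl2, was treated with 10 μM compound for 30 min. After 3 min heating across 48°C-58°C, aliquots were pooled, adjusted to 0.5% NP-40 at 4°C and centrifuged at 21,000xg for 90 min. The supernatant was measured by TMTpro 16plex LC-MS/MS with channel sums equalised.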

Amino acid sequences for entries named in this document (tags omitted). A change or cut given only in a name is not applied to a line headed by its entry.
UniProt P06748, whole entry, looked up: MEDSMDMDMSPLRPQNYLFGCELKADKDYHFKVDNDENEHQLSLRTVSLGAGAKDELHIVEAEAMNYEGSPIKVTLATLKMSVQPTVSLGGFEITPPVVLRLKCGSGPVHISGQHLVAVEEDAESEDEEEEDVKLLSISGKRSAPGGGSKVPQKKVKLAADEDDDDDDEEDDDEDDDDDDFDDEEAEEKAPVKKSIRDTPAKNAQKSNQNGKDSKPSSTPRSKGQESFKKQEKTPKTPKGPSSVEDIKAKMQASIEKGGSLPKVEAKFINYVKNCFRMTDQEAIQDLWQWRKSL
UniProt P46531, whole entry, looked up: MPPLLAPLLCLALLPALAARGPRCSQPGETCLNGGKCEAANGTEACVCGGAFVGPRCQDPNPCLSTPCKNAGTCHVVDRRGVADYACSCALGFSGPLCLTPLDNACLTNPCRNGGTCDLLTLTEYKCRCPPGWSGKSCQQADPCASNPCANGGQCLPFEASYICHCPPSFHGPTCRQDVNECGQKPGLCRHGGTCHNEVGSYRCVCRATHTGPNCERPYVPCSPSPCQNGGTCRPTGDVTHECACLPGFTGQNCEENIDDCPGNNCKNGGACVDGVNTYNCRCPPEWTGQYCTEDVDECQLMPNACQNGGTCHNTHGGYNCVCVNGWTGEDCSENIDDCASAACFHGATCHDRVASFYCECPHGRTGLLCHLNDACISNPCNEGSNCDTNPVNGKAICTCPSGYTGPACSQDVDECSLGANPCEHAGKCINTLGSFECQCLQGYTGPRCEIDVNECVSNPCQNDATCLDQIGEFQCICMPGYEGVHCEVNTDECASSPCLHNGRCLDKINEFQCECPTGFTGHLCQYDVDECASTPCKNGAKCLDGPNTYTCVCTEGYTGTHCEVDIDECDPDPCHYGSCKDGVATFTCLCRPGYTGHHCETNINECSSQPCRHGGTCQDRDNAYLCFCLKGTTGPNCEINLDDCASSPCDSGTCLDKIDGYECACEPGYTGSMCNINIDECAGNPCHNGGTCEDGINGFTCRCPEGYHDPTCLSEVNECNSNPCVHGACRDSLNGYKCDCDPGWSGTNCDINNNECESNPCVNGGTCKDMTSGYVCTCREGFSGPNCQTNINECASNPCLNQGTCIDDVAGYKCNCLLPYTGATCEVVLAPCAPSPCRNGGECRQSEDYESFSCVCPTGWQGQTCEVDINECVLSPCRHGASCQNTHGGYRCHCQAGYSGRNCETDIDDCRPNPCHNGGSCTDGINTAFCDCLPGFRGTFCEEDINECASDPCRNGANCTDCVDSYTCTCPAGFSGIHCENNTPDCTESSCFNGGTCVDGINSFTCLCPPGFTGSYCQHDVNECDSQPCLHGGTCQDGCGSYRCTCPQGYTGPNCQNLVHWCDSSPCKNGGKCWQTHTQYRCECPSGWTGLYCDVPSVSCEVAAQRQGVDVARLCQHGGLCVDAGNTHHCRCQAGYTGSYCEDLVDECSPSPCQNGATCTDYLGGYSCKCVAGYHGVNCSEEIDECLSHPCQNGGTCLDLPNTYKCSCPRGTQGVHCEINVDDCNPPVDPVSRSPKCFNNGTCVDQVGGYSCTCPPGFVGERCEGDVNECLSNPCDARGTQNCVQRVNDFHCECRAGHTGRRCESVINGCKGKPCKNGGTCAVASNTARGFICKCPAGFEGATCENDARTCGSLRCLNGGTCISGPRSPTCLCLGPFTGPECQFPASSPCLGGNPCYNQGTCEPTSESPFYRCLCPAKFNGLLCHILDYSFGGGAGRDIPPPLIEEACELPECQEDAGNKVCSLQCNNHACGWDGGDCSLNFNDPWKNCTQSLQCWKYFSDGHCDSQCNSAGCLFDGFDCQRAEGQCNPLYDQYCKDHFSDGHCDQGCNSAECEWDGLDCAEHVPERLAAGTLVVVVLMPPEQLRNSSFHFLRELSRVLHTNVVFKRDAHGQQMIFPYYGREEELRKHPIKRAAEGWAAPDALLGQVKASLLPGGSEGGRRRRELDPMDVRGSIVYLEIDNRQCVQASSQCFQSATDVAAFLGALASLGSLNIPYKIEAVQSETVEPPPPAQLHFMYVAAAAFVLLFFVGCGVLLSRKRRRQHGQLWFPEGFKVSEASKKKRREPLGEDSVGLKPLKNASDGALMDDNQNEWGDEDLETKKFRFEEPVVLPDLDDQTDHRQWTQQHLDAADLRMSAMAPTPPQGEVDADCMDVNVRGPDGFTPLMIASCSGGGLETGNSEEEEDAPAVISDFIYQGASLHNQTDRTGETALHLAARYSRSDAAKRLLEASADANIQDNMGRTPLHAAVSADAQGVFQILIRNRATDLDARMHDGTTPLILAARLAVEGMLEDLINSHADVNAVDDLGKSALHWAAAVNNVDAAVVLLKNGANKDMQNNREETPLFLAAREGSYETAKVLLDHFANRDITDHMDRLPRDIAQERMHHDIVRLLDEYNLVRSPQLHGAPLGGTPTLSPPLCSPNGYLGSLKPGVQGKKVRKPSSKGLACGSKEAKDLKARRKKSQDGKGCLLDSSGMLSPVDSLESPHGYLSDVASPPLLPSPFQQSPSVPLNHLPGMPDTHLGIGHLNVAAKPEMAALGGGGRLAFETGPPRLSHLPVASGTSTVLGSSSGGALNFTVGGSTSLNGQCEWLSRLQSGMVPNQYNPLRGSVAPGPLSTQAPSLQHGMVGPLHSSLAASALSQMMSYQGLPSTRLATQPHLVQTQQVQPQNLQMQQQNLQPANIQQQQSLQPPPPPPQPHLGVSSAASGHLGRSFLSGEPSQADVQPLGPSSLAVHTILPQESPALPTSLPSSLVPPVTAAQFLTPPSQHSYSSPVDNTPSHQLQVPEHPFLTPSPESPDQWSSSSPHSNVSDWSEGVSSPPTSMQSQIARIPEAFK
UniProt Q96CB9: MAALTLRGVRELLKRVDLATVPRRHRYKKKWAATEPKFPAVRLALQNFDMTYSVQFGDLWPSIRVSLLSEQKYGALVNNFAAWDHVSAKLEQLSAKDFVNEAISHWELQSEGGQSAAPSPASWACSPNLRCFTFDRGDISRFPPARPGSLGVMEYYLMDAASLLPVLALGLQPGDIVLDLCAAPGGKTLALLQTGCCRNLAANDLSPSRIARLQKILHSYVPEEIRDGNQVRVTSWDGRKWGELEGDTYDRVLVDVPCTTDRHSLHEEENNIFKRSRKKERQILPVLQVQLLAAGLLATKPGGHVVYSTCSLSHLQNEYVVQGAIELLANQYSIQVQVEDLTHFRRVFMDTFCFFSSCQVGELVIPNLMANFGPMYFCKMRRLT
UniProt Q14978: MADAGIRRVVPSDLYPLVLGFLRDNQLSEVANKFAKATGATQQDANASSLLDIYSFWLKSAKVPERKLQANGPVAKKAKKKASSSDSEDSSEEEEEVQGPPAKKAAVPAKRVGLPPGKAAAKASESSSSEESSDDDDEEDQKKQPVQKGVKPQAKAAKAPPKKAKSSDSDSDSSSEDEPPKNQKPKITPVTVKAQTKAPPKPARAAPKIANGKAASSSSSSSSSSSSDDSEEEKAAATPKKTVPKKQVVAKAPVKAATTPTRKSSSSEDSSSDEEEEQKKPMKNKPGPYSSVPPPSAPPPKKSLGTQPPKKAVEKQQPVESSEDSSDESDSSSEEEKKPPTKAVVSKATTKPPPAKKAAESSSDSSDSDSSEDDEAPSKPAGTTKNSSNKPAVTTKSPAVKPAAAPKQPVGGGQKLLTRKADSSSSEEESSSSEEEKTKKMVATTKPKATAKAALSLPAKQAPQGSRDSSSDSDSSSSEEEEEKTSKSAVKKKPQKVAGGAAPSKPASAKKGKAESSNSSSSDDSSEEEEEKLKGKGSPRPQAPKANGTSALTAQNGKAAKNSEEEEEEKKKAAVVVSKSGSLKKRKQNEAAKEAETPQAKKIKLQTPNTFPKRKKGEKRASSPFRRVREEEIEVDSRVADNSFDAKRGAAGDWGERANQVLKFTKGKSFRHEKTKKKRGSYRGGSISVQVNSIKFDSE
UniProt Q8WV74: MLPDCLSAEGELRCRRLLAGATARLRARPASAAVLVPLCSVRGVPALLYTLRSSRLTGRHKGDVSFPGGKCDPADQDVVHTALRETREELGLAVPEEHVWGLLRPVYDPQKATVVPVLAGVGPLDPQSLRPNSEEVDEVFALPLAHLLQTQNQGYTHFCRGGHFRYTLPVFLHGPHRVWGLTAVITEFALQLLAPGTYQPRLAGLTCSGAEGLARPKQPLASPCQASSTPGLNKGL
UniProt P10588: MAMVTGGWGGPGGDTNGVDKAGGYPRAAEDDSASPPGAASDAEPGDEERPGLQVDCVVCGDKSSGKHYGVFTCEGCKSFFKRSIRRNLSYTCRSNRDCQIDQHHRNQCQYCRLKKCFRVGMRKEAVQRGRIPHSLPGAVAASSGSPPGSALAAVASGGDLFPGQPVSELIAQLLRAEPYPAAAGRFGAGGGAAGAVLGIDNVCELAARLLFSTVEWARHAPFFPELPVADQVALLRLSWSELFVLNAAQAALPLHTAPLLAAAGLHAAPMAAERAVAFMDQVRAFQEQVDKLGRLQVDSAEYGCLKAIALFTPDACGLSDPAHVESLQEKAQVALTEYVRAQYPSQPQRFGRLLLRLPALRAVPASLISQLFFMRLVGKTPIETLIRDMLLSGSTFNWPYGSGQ
UniProt O00746: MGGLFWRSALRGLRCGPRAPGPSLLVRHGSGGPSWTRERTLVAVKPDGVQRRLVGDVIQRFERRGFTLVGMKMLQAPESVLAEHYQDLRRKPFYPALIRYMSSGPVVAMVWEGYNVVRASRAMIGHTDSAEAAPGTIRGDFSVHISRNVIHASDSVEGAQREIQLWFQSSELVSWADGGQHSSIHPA
UniProt Q9NWW6: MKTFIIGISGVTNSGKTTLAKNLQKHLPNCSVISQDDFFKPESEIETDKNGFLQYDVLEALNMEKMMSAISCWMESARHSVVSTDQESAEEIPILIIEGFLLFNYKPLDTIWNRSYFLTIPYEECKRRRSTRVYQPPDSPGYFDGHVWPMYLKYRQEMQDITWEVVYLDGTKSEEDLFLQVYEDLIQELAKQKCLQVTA
UniProt Q9H7Z3: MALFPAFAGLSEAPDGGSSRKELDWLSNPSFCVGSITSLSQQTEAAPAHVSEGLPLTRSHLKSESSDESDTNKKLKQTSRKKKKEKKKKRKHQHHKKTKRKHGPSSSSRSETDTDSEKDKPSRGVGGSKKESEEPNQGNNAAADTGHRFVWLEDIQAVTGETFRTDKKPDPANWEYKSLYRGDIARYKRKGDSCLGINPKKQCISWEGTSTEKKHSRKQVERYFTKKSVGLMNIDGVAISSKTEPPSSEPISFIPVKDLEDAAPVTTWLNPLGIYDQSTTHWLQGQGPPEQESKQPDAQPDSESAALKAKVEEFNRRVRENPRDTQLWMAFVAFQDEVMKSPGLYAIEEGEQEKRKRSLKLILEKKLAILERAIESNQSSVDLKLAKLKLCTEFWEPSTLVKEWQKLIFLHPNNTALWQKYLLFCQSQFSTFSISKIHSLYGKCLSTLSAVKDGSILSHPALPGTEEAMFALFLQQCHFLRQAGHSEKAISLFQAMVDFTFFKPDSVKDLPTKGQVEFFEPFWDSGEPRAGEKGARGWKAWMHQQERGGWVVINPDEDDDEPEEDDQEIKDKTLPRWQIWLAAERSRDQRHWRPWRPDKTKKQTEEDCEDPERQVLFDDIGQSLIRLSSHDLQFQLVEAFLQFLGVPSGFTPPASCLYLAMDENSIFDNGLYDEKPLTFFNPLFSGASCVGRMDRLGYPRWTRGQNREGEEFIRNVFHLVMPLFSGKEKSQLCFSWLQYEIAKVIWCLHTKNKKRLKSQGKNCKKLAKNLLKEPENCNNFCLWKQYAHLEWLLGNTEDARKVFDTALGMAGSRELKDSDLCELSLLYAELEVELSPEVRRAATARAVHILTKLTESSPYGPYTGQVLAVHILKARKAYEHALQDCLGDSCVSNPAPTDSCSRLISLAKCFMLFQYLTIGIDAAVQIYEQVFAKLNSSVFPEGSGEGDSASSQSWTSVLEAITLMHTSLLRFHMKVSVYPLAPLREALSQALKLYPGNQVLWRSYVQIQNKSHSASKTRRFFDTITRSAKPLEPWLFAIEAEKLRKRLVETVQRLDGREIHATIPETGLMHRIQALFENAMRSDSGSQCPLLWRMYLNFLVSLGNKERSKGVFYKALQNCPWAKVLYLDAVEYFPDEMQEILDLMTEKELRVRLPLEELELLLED
UniProt Q8TB37: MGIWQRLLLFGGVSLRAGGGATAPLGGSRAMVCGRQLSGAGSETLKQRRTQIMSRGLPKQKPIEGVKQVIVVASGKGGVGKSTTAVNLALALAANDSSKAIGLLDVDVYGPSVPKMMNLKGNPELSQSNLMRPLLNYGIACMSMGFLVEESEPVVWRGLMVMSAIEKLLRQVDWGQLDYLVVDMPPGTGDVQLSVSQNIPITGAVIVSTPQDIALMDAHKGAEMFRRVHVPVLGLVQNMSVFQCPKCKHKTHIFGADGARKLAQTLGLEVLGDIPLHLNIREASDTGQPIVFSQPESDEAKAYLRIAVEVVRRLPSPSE

[1] = compound: C/C(=N\NC(=O)C1=CC(=CC=C1)S(=O)(=O)N2CCOCC2)/C3=C(C=CC(=C3)Cl)O
In short: as §1

[2] = compound: C1=CC(=CC=C1C2=NC3=C(N2)C=C(C=C3)C(=O)N)OC4=CC=C(C=C4)Cl
In short: as §1

[3] = compound: C1=CC2=C(C=CC(=C2)/C=C\3/C(=O)NC(=NCC4=CC=CS4)S3)N=C1
In short: as §1

[4] = compound: C1=CC2=NC=CN=C2C=C1/C=C/3\C(=O)NC(=O)S3
In short: as §1

[5] = compound: C1=CC=C(C=C1)C2=NC(=C(N2)C3=CC=NC=C3)C4=CC(=C(C=C4)Cl)O
In short: as §1

[6] = compound: C1=CC=C2C(=C1)C3=NNC4=CC=CC(=C43)C2=O
In short: as §1

[7] = compound: C1CCN(C1)C(=O)NC2=CC=CC(=C2)NC3=NC=C(C(=N3)NCCC4=CN=CN4)Br
In short: as §1

[8] = compound: C1CN(CCC1(CC2=CC=C(C=C2)Cl)N)C3=NC=NC4=C3C=CN4
In short: as §1

IRAK-1-4 Inhibitor I = compound: C1COCCN1CCN2C3=CC=CC=C3N=C2NC(=O)C4=CC(=CC=C4)[N+](=O)[O-] [IRAK-1-4 Inhibitor I]
In short: as §1

ibrutinib = compound: C=CC(=O)N1CCC[C@@H](n2nc(-c3ccc(Oc4ccccc4)cc3)c3c(N)ncnc32)C1 [ibrutinib]
In short: as §1

[9] = compound: CC(=O)c1cnc2ccc(-c3cc(Cl)c(O)c(Cl)c3)nc2c1N[C@H]1CC[C@H](CN(C)C)CC1
In short: as §1

ralimetinib = compound: CC(C)(C)Cn1c(N)nc2ccc(-c3[nH]c(C(C)(C)C)nc3-c3ccc(F)cc3)nc21 [ralimetinib]
In short: as §1

[10] = compound: CC(C)(O)CC(=O)NCCn1ccc2ncnc(Nc3ccc(Oc4cccc(C(F)(F)F)c4)c(Cl)c3)c21
In short: as §1

[11] = compound: CC(C)C1=C2N=C(C=C(N2N=C1)NCC3=CC=CC=C3)NCCCCCCN
In short: as §1

[12] = compound: CC1=C(C(CC(=O)N1)C2=CC=C(C=C2)C(F)(F)F)C(=O)NC3=C(C=C4C(=C3)C=NN4)F
In short: as §1

[13] = compound: CC1=C(C2=C(C=C1)C(=O)C3=CC=CC=C3N2CCCN)C
In short: as §1

[14] = compound: CC1=C(C=C(C=C1)NC(=O)C2=CC(=CC=C2)C(C)(C)C#N)NC3=CC4=C(C=C3)N=CN(C4=O)C
In short: as §1

[15] = compound: CC1=C(C=C(C=C1)NC(=O)C2=CC(=CC=C2)N(C)C)NC(=O)C3=CC=C(C=C3)O
In short: as §1

[16] = compound: CC1=CC=C(C=C1)SC2=C3C=C(SC3=CN=C2)C(=O)N
In short: as §1

Measured: log2 fold change

NONO (UniProt Q15233)
inactive: erlotinib 0.021 | [1] -0.048 | [2] 0 | [3] -0.006 | [4] -0.017 | [5] 0.025 | [6] -0.027 | [7] 0.014 | [8] 0.002 | IRAK-1-4 Inhibitor I 0.005 | ibrutinib -0.013 | [9] 0.006 | ralimetinib 0.008 | [10] -0.002 | [11] 0.006 | [12] -0.006 | [13] -0.006 | [14] -0.016 | [15] 0.015 | [16] 0.014

NPM1 (UniProt P06748)
inactive: erlotinib -0.044 | [1] 0.002 | [2] -0.028 | [3] 0.003 | [4] -0.021 | [5] 0.001 | [6] 0.064 | [7] 0.045 | [8] -0.022 | IRAK-1-4 Inhibitor I -0.028 | ibrutinib 0.006 | [9] 0.012 | ralimetinib 0.001 | [10] -0.014 | [11] 0.017 | [12] -0.027 | [13] 0.007 | [14] -0.02 | [15] -0.015 | [16] 0

NMU (UniProt P48645)
inactive: erlotinib -0.052 | [1] -0.006 | [2] 0.11 | [3] 0.018 | [6] -0.187 | [7] -0.079 | [8] -0.049 | [11] 0.096 | [14] -0.063

NUDT22 (UniProt Q9BRQ3)
inactive: erlotinib -0.038 | [1] 0.034 | [2] -0.129 | [3] -0.004 | [6] 0.019 | [7] 0.247 | [8] -0.045 | [9] -0.023 | [11] 0.014 | [12] 0.07 | [14] -0.048 | [16] 0.012

NUDT7 (UniProt P0C024)
inactive: erlotinib 0.036 | [1] -0.048 | [2] 0 | [3] 0.025 | [4] -0.009 | [5] 0.036 | [6] 0.017 | [7] 0.014 | [8] -0.012 | IRAK-1-4 Inhibitor I -0.058 | ibrutinib -0.037 | [9] 0.158 | ralimetinib -0.083 | [10] -0.204 | [11] 0.051 | [13] 0.002 | [14] 0.046 | [15] -0.106 | [16] 0.12

NOTCH1 (UniProt P46531)
inactive: erlotinib -0.039 | [1] -0.017 | [2] 0.054 | [3] -0.084 | [5] -0.105 | [6] -0.091 | [7] 0.055 | [8] -0.214 | IRAK-1-4 Inhibitor I 0.108 | [9] 0.034 | ralimetinib 0.008 | [10] -0.124 | [11] -0.124 | [12] 0.009 | [13] -0.073 | [14] 0 | [15] 0.026 | [16] -0.023

NPRL3 (UniProt Q12980)
inactive: erlotinib 0.043 | [1] -0.241 | [2] -0.096 | [3] -0.202 | [5] 0.169 | [6] -0.033 | IRAK-1-4 Inhibitor I -0.093 | ralimetinib -0.166 | [10] -0.081 | [11] 0.05 | [12] 0.007 | [14] 0.057 | [15] 0.036

NRBP1 (UniProt Q9UHY1)
inactive: erlotinib -0.012 | [1] -0.011 | [2] 0.006 | [3] 0.001 | [4] -0.018 | [5] 0.007 | [6] -0.05 | [7] -0.007 | [8] 0.017 | IRAK-1-4 Inhibitor I 0.001 | ibrutinib 0.007 | [9] -0.003 | ralimetinib -0.008 | [10] 0 | [11] -0.005 | [12] -0.033 | [13] -0.011 | [14] 0.007 | [15] 0.008 | [16] -0.01

NSUN4 (UniProt Q96CB9)
inactive: erlotinib 0.025 | [1] -0.376 | [2] 0.101 | [3] 0.207 | [4] 0 | [5] 0.359 | [6] 0.218 | IRAK-1-4 Inhibitor I 0.133 | ibrutinib -0.026 | [9] -0.087 | ralimetinib 0.108 | [10] -0.089 | [11] 0.177 | [12] -0.099 | [13] -0.09 | [14] -0.023 | [15] -0.034 | [16] 0.228

NOLC1 isoform 3 (UniProt Q14978)
inactive: erlotinib -0.113 | [2] 0.088 | [4] 0.179 | [5] -0.069 | [7] 0.013 | [8] 0.066 | IRAK-1-4 Inhibitor I 0.037 | ibrutinib 0.226 | [9] -0.009 | ralimetinib -0.065 | [10] -0.04 | [11] -0.018 | [13] 0 | [14] -0.047 | [15] 0.01 | [16] -0.03

NR2C2 isoform 2 (UniProt P49116)
inactive: erlotinib 0.006 | [1] 0.135 | [2] -0.014 | [3] 0.134 | [4] -0.012 | [5] 0.064 | [6] -0.035 | [7] 0.061 | [8] -0.041 | IRAK-1-4 Inhibitor I -0.019 | ibrutinib 0.069 | [9] -0.081 | ralimetinib 0.014 | [10] 0 | [11] -0.03 | [13] -0.064 | [14] 0.044 | [15] -0.019 | [16] -0.086

NUDT8 (UniProt Q8WV74)
inactive: erlotinib 0.086 | [1] 0.107 | [2] 0.055 | [3] 0.124 | [5] 0.126 | [6] -0.118 | [7] 0.064 | [8] -0.012 | IRAK-1-4 Inhibitor I -0.027 | [9] -0.092 | ralimetinib -0.034 | [10] 0.062 | [11] 0.081 | [12] -0.089 | [13] -0.055 | [14] 0.084 | [15] -0.028 | [16] 0.093

NUDT5 (UniProt C9JYY9)
inactive: erlotinib 0.098 | [2] -0.157 | [7] -0.069 | [8] 0.034 | [11] -0.111 | [12] -0.05

NR2F6 (UniProt P10588)
inactive: [5] -0.031 | [7] 0.136 | [8] 0.062 | IRAK-1-4 Inhibitor I -0.013 | ralimetinib -0.024 | [10] -0.299 | [12] 0.213 | [13] 0.06 | [14] -0.078 | [15] 0.002

NME4 (UniProt O00746)
inactive: erlotinib -0.126 | [2] -0.084 | [5] 0.274 | [7] 0.01 | [8] 0.103 | IRAK-1-4 Inhibitor I 0.156 | ralimetinib -0.173 | [10] -0.059 | [11] 0.068 | [14] 0.08 | [15] 0.078

NT5C2 (UniProt Q5JUV3)
inactive: [7] 0.025 | [8] 0.048 | [13] 0.008 | [14] 0.059

NOM1 (UniProt Q5C9Z4)
inactive: [1] -0.121 | [3] 0.126 | [6] 0.111 | [7] -0.23 | [8] 0.12 | [9] 0.061 | [12] -0.015 | [13] -0.055 | [14] 0.032 | [16] 0

NR1D1 (UniProt P20393)
inactive: [7] 0.09 | [8] 0.196

NMRK1 (UniProt Q9NWW6)
inactive: [14] -0.006

NPRL2 (UniProt Q8WTW4)
inactive: [12] -0.076 | [14] 0.039

NRDE2 (UniProt Q9H7Z3)
inactive: [4] 0.084 | [5] -0.087 | IRAK-1-4 Inhibitor I 0.25 | ibrutinib 0.227 | [9] 0.086 | ralimetinib 0.288 | [10] -0.244 | [12] -0.025 | [13] -0.07 | [15] -0.158 | [16] -0.005

NUMB isoform 2 (UniProt P49757)
inactive: [5] 0.304 | IRAK-1-4 Inhibitor I 0.021 | ralimetinib 0.059 | [10] 0.12 | [12] 0.154 | [13] -0.245 | [15] -0.062

NUB1 (UniProt H7C5N1)
inactive: [5] 0.163 | IRAK-1-4 Inhibitor I 0.183 | ralimetinib 0.133 | [10] -0.146 | [15] -0.131

NUBPL (UniProt Q8TB37)
inactive: [1] 0.141 | [3] -0.01 | [6] 0.13 | [7] 0.112 | [8] 0.368 | [13] -0.098
